PMC10721154
No constants are given. Whether binding was seen depends on the method and setting. In cells and extracts the contact can be indirect. Binding can be weak; no strength is given. For some assays here: Tags and fused reporters may be left off the sequences shown.

Key:
[1] = molecular target: T1, HA-PTG (UniProt Q9UQK1); assay: co-IP; HEK293T cells transfected with tagged plasmids, treated with H2O2 (200 uM where printed) for 30 minutes or DDP (20 uM) for 12 hours; anti-Flag M2, anti-Myc or anti-HA beads, or anti-STBD1; Western blot
T1 sequence: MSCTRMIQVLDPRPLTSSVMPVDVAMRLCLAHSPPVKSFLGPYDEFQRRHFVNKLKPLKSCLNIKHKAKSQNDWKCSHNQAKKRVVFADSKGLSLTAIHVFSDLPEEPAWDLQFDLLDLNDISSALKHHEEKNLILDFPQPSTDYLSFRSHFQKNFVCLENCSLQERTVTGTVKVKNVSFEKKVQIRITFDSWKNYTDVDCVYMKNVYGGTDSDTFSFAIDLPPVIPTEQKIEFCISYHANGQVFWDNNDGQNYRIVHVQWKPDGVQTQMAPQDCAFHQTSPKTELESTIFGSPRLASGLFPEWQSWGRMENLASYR

[2] = molecular target: T2, PPP1R3 family member PPP1R3C (PTG) (human (endogenous in MCF-7, MCF-7/DDP)) (UniProt Q9UQK1); assay: co-IP; endogenous proteins in lysates of tumor cells (MCF-7, MCF-7/DDP, A549/5-Fu), untreated or treated with DDP or 5-Fu for 24 hours, some with si-Ctrl or si-AHR; indicated antibodies (anti-STBD1, anti-HSP90, anti-AHR, anti-p-PYGL, anti-PTG) overnight at 4 C, Protein A/G beads; Western blot
T2 sequence: T1 sequence

binding [1]	binding [2]	Substance
binds	–	Myc-PP1c (enzyme)
–	binds	protein phosphatase 1 catalytic subunit (PP1c) (human (endogenous in MCF-7, MCF-7/DDP)) (enzyme)
